Source: the supplement of paper PMC10849652
This is one part of the list.

Sequences of proteins named here, by UniProt entry; tags and fusion partners are left off. A change or cut given only in a name is not applied to a line headed by its entry.
UniProt Q12772: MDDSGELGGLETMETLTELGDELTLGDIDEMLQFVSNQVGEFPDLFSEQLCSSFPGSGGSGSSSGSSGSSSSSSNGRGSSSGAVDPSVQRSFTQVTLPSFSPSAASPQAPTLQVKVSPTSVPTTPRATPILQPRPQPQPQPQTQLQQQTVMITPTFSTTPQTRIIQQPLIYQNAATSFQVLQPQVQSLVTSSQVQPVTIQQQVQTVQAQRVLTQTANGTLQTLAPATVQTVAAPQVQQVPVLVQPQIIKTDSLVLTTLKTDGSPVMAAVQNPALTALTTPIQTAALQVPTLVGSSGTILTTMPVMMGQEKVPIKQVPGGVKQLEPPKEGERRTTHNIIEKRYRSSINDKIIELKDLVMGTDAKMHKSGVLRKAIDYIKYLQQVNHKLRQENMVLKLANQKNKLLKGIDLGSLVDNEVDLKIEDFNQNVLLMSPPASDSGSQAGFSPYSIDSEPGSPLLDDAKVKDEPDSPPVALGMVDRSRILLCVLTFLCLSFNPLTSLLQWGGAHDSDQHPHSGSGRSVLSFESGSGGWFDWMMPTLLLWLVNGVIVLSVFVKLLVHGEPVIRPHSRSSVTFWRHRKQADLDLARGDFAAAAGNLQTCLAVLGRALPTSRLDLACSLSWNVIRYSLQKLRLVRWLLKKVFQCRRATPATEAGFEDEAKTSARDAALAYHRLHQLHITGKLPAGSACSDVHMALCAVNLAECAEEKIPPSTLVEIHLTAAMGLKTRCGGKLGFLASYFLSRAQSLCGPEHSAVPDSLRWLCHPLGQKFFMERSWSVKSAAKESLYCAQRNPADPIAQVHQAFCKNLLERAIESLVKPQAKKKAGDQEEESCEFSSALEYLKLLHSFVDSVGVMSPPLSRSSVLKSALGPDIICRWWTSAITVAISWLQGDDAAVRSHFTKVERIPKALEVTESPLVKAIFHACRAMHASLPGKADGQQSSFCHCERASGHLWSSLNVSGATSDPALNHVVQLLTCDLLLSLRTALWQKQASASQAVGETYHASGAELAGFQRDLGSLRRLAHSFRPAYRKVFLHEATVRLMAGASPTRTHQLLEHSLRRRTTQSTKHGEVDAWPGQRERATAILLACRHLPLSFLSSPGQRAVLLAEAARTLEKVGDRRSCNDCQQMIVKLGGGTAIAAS
UniProt Q9Y365: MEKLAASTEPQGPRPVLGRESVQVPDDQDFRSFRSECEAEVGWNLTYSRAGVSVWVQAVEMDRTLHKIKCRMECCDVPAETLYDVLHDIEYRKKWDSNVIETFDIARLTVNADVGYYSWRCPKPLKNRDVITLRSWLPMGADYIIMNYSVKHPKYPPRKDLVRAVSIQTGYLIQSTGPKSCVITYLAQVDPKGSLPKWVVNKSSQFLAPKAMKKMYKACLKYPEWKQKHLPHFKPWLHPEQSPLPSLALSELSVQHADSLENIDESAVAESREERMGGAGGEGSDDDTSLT
UniProt Q7Z699: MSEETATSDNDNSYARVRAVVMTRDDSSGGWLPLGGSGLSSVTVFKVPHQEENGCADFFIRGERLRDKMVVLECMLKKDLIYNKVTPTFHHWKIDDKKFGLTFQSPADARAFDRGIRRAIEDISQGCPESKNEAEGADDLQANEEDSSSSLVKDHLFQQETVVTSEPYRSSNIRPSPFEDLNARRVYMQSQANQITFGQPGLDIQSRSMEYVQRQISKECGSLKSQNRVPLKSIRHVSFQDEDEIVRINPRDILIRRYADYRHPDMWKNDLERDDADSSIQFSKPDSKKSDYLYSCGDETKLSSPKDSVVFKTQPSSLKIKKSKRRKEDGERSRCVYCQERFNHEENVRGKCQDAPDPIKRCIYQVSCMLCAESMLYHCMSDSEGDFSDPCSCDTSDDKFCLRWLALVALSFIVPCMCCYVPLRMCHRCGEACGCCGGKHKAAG
UniProt Q9H8P0: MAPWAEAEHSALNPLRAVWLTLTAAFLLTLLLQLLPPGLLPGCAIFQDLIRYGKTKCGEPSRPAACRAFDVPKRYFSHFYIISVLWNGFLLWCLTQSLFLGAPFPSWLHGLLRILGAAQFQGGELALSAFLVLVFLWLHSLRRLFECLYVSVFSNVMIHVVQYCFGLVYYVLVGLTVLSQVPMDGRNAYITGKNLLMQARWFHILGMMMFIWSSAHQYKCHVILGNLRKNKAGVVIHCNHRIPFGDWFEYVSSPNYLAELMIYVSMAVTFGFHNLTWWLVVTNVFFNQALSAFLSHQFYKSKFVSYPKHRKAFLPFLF
UniProt Q9NY15: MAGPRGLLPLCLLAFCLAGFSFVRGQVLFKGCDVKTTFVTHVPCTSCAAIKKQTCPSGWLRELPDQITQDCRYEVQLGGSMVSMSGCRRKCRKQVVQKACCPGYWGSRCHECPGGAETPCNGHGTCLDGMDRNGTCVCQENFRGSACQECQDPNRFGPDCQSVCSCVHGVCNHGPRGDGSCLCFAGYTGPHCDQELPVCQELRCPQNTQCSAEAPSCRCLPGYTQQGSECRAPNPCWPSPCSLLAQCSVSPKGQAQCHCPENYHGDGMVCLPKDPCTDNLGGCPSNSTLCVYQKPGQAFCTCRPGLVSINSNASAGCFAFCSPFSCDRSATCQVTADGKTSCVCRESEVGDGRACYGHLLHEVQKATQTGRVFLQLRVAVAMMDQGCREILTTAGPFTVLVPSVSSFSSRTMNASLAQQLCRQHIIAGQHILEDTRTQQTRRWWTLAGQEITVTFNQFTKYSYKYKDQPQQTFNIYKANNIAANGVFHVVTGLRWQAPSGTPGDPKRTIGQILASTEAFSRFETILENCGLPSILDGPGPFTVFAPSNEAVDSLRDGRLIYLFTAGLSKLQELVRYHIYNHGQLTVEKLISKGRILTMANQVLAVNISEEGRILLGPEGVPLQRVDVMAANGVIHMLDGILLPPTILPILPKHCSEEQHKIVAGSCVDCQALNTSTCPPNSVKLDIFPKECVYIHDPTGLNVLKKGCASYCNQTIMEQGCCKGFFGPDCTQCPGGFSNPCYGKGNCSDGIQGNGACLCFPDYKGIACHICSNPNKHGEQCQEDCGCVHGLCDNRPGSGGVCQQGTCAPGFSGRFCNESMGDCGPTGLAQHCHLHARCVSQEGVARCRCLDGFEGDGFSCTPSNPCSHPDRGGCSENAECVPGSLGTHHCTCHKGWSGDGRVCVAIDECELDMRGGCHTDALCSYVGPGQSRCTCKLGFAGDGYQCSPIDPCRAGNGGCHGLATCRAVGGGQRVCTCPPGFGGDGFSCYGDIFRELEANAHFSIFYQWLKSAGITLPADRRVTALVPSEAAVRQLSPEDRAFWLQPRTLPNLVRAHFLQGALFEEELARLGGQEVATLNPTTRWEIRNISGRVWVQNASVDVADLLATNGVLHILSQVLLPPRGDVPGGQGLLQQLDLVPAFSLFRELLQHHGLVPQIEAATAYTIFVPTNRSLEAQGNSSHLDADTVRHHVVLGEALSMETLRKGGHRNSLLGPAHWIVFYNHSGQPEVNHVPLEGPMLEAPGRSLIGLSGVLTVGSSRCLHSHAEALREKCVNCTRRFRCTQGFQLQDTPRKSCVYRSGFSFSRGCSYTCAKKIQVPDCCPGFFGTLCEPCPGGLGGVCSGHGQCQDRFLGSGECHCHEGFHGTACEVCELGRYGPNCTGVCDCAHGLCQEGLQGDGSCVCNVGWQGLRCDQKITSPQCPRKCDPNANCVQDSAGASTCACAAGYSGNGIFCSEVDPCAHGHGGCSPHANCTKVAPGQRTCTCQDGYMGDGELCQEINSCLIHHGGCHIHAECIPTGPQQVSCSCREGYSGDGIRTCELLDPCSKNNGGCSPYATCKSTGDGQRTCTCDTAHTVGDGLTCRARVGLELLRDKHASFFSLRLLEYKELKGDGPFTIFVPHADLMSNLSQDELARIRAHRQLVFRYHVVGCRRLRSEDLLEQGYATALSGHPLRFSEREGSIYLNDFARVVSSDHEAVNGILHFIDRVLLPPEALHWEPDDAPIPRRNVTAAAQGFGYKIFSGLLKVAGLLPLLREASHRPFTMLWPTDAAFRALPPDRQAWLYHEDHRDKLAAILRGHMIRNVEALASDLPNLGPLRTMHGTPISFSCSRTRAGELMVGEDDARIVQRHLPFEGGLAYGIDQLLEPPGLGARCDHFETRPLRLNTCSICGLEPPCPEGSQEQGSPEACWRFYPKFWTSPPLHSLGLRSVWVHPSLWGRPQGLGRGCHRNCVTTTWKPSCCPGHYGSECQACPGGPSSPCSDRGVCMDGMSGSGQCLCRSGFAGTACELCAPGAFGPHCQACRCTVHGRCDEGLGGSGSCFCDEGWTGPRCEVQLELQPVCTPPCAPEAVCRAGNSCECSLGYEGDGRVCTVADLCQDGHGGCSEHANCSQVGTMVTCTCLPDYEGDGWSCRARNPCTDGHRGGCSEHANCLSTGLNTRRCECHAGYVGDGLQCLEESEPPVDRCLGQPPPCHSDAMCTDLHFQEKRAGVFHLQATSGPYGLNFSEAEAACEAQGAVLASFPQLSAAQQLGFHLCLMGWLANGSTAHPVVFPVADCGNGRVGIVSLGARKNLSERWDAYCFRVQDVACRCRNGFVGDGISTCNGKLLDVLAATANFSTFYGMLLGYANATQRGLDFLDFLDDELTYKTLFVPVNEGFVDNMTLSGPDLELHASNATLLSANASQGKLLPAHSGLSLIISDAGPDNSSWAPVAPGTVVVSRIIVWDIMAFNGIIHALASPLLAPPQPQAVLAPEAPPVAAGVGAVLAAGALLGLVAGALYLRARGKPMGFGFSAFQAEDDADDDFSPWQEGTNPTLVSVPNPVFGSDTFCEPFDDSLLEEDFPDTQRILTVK
UniProt P35325: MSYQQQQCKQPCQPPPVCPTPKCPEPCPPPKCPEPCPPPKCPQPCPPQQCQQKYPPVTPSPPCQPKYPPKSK
UniProt O94768: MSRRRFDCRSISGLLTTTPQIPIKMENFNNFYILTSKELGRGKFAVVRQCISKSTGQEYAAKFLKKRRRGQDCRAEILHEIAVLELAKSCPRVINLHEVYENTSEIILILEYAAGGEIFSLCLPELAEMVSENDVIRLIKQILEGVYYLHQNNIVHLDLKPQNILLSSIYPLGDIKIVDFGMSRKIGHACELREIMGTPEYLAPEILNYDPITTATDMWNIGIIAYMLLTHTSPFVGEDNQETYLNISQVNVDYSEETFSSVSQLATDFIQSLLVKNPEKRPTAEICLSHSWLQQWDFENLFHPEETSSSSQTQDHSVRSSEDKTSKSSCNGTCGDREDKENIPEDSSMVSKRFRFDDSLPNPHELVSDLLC
UniProt Q68D10: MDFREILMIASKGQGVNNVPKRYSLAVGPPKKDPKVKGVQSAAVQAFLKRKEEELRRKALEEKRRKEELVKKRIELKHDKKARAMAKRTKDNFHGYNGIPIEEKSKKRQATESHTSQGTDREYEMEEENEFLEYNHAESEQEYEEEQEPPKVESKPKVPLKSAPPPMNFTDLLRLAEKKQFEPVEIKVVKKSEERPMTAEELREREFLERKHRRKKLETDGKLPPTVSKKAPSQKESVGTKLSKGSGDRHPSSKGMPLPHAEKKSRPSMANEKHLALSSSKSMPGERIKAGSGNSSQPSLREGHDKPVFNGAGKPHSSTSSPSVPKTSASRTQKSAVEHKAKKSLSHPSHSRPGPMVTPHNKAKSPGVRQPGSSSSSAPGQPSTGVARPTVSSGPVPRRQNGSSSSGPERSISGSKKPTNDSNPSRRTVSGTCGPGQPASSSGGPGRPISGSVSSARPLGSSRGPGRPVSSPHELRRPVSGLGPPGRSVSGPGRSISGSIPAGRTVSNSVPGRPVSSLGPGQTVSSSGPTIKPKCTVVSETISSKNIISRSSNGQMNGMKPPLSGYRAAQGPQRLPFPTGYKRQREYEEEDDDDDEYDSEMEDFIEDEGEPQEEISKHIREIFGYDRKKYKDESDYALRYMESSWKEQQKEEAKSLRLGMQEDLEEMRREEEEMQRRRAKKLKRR
UniProt Q9NRA0: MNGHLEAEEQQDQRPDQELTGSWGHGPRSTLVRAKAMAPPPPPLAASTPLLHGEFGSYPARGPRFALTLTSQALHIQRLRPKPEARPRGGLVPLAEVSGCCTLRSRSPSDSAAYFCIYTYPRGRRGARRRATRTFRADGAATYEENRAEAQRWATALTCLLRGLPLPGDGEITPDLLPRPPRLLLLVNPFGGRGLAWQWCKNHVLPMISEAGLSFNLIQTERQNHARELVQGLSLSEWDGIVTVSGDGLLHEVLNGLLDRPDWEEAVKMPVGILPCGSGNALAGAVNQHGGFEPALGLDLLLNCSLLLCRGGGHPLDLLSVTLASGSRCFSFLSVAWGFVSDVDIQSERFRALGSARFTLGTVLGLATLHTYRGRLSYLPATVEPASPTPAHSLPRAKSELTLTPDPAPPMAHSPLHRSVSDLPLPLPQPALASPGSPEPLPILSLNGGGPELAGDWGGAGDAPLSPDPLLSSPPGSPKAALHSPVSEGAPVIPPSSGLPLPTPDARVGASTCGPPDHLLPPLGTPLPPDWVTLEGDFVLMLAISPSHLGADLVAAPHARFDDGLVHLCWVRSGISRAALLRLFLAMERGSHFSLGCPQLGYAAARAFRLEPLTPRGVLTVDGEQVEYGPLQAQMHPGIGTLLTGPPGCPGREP

Experiments:
Assay in all cases: log2 fold change, soluble protein after heating vs DMSO (PISA); higher = thermal stabilisation; K562 cells, 10 uM, 30 min; active = over 0.2 and 3.5 SD of the protein, either way, in both replicates (recomputed)
[1] = compound: CC1=C(C=C(C=C1)NC(=O)C2=CC(=CC=C2)C(C)(C)C#N)NC3=CC4=C(C=C3)N=CN(C4=O)C
Summary of the method: (§1)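 K562 cells at 2×10^6 cells/mL were treated with 10 μM compound for 30 min. Aliquots were heated for 3 min across 48°C-58°C, pooled, and extracted in PBS with 0.5% NP-40 at 4°C; soluble protein was the supernatant after 21,000xg for 90 min. Soluble protein was quantified by TMTpro 16plex LC-MS/MS with channel sums equalised, and reported as log2 fold change in thermal stability against DMSO controls, with values from duplicates.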

[2] = compound: CC1=NC(=CC=C1)C2=C(N=C(N2)C(C)(C)C)C3=CC4=NC=CN=C4C=C3
Summary of the method: as §1

[3] = compound: CCCCN(Cc1ccc(C(=O)NO)cc1)C(=O)Nc1ccccc1 [Nexturastat A]
Summary of the method: as §1

[4] = compound: CCCS(=O)(=O)Nc1ccc(F)c(C(=O)c2c[nH]c3ncc(-c4ccc(Cl)cc4)cc23)c1F [vemurafenib]
Summary of the method: as §1

[5] = compound: CCCc1cc(C)[nH]c(=O)c1CNC(=O)c1cc(-c2ccnc(N3CCN(C)CC3)c2)cc2c1cnn2C(C)C
Summary of the method: as §1

[6] = compound: CCN(CC)Cc1ccc2cc(COC(=O)Nc3ccc(C(=O)NO)cc3)ccc2c1 [givinostat]
Summary of the method: as §1

[7] = compound: CCN(CCCOc1ccc2c(Nc3cc(CC(=O)Nc4cccc(F)c4)[nH]n3)ncnc2c1)CCOP(=O)(O)O [barasertib]
Summary of the method: as §1

[8] = compound: CC[C@@H]1C(=O)N(C)c2cnc(Nc3ccc(C(=O)NC4CCN(C)CC4)cc3OC)nc2N1C1CCCC1
Summary of the method: as §1

[9] = compound: CC[C@H](C)N1C=C(C2=C(C=C(C=C21)C3=CN=C(C=C3)N4CCNCC4)C(=O)NCC5=C(C=C(NC5=O)C)C)C
Summary of the method: as §1

[10] = compound: CC[C@H](C)[C@@H](C(=O)N[C@@H]([C@@H](C)O)C(=O)N[C@@H](CC(C)C)C(=O)[C@]1(CO1)C)NC(=O)[C@H]([C@@H](C)CC)N(C)C(=O)C [epoxomicin]
Summary of the method: as §1

[11] = compound: CCn1c(C(=O)N(C2CC2)C2CC2)cc2c3c(ncn3C)c(Nc3cc(C)n(C)n3)nc21
Summary of the method: as §1

[12] = compound: CN(C)CC(=O)Nc1ccc2[nH]c(=O)c3ccccc3c2c1
Summary of the method: as §1

[13] = compound: CN(CCOC1=CC=C(C=C1)C[C@H]2C(=O)NC(=O)S2)C3=CC=CC=N3 (racemic) [rosiglitazone]
Summary of the method: as §1

[14] = compound: CC1=C(C=C(C=C1)NC(=O)C2=CC(=CC=C2)N(C)C)NC(=O)C3=CC=C(C=C3)O
Summary of the method: as §1

[15] = compound: CC1=CC=C(C=C1)SC2=C3C=C(SC3=CN=C2)C(=O)N
Summary of the method: as §1

[16] = compound: CCCS(=O)(=O)Nc1ccc(F)c(C(=O)c2c[nH]c3ncc(Cl)cc23)c1F
Summary of the method: as §1

[17] = compound: CC[C@@H]1C(=O)N(C)c2cnc(Nc3ccc(C(=O)N[C@H]4CC[C@H](N5CCN(CC6CC6)CC5)CC4)cc3OC)nc2N1C(C)C [volasertib]
Summary of the method: as §1

[18] = compound: CCn1cc(-c2ccnc3[nH]c(-c4cccc(CN(C)C)c4)cc23)c(-c2ccc(NC(=O)N(C)C)cc2)n1
Summary of the method: as §1

[19] = compound: CN1CCC(CNc2ccc3ncc(-c4cccc(OC(F)(F)F)c4)n3n2)CC1
Summary of the method: as §1

[20] = compound: CN1C2=C(C3=C1C(=O)N(N=C3)CC4=CC(=CC=C4)N)SC(=C2)S(=O)C
Summary of the method: as §1

Measured: log2 fold change

SREBF2 (UniProt Q12772)
inactive: [1] -0.046 | [2] 0.103 | [3] -0.04 | [4] -0.156 | [5] -0.032 | [6] 0.085 | [7] 0.071 | [8] -0.031 | [9] 0.016 | [10] -0.004 | [11] -0.042 | [12] -0.051 | [13] 0.031

SSBP2 (UniProt P81877)
inactive: [14] -0.036 | [15] 0.056 | [3] -0.043 | [16] 0.409 | [5] 0.177 | [7] -0.113 | [8] 0.091 | [17] -0.294 | [10] 0.118 | [18] 0.135 | [13] 0.042 | [19] 0.165

SPATS2 (UniProt Q86XZ4)
inactive: [4] -0.027 | [6] 0.113 | [8] -0.035 | [11] -0.099 | [18] 0.162 | [12] 0.137 | [20] 0.34 | [19] 0.017

SSB (UniProt E7ERC4)
inactive: [4] 0.264 | [5] 0.283 | [18] -0.076 | [12] -0.154 | [20] -0.34 | [19] 0.266

STC2 (UniProt O76061)
inactive: [14] 0.073 | [15] -0.142 | [4] 0.15 | [16] -0.118 | [6] -0.069 | [7] 0 | [17] 0.217 | [9] 0.06 | [11] 0.04 | [18] -0.366 | [12] -0.374 | [13] -0.027 | [19] 0.204

SSBP4 (UniProt U3KPY3)
inactive: [4] -0.095 | [5] -0.028 | [12] 0.049

Four successive records already listed, quoted:
SREBF2 (UniProt Q12772)
inactive: [1] -0.046 | [2] 0.103 | [3] -0.04 | [4] -0.156 | [5] -0.032 | [6] 0.085 | [7] 0.071 | [8] -0.031 | [9] 0.016 | [10] -0.004 | [11] -0.042 | [12] -0.051 | [13] 0.031

SSBP2 (UniProt P81877)
inactive: [14] -0.036 | [15] 0.056 | [3] -0.043 | [16] 0.409 | [5] 0.177 | [7] -0.113 | [8] 0.091 | [17] -0.294 | [10] 0.118 | [18] 0.135 | [13] 0.042 | [19] 0.165

SPATS2 (UniProt Q86XZ4)
inactive: [4] -0.027 | [6] 0.113 | [8] -0.035 | [11] -0.099 | [18] 0.162 | [12] 0.137 | [20] 0.34 | [19] 0.017

SSB (UniProt E7ERC4)
inactive: [4] 0.264 | [5] 0.283 | [18] -0.076 | [12] -0.154 | [20] -0.34 | [19] 0.266

Following part.

STARD10 (UniProt Q9Y365)
inactive: [1] -0.026 | [3] 0.207 | [4] 0.101 | [6] 0.094 | [8] -0.034 | [10] 0.29 | [11] 0.065 | [12] 0.305 | [20] -0.03

SPRED1 (UniProt Q7Z699)
inactive: [14] -0.176 | [3] -0.035 | [4] -0.062 | [10] -0.184 | [12] -0.106

SRD5A3 (UniProt Q9H8P0)
inactive: [14] 0.124 | [2] 0.148 | [5] -0.066 | [6] -0.015 | [7] -0.207 | [8] -0.277 | [9] -0.046 | [11] 0.019 | [18] 0.073 | [13] 0.08 | [19] -0.406

STAB1 (UniProt Q9NY15)
inactive: [14] -0.067 | [15] -0.113 | [2] -0.058 | [3] 0.188 | [4] -0.001 | [16] -0.236 | [5] -0.149 | [6] -0.016 | [7] 0.064 | [17] -0.154 | [10] -0.2 | [11] -0.143 | [18] 0.209 | [12] 0.034 | [13] 0.432 | [20] -0.054 | [19] 0.082

SPRR2B (UniProt P35325)
inactive: [3] -0.058 | [4] -0.384 | [5] -0.011 | [6] 0.091 | [7] -0.104 | [8] 0.009 | [9] -0.166 | [10] 0.862 | [11] -0.115 | [12] 0.079 | [13] 0.279

SPTAN1 isoform 3 (UniProt Q13813)
inactive: [4] 0.039 | [12] 0.117

SS18 (UniProt Q15532)
inactive: [14] -0.212 | [15] 0.065 | [4] 0.521 | [16] -0.034 | [5] -0.004 | [6] 0.037 | [7] 0.13 | [8] 0.019 | [17] -0.217 | [9] 0.171 | [11] -0.003 | [18] -0.165 | [12] 0.001 | [13] 0.1 | [20] -0.087 | [19] 0.187

SPP2 (UniProt Q13103)
inactive: [1] -0.044 | [3] 0.055 | [4] 0.104 | [6] -0.016 | [7] 0.012 | [10] -0.219 | [11] 0 | [12] -0.034 | [13] -0.063 | [20] 0.148

STK17B (UniProt O94768)
inactive: [2] 0.031 | [6] 0.16 | [7] 0.29

SPTY2D1 (UniProt Q68D10)
inactive: [3] 0.156 | [10] 0.037

SPHK2 isoform 5 (UniProt Q9NRA0)
inactive: [1] 0.055 | [15] 0.149 | [16] -0.064 | [17] -0.054
